This is one part of the list.
Columns and labels:
Test in all cases: log2 fold change, soluble protein after heating vs DMSO (PISA); higher = thermal stabilisation; K562 lysate, 10 uM; active = over 0.2 and 3.5 SD of the protein, either way, in both replicates (recomputed)
vemurafenib = compound: CCCS(=O)(=O)Nc1ccc(F)c(C(=O)c2c[nH]c3ncc(-c4ccc(Cl)cc4)cc23)c1F [vemurafenib]
Outline: (§1)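 K562 pellets were dounce-homogenised in PBS pH 7.4 with 1 mM MgCl2, and the crude extract at 1 mg/mL protein was treated with 10 μM compound for 30 min. Aliquots were heated for 3 min across 48°C-58°C, pooled, and brought to 0.5% NP-40 at 4°C; soluble protein was the supernatant after 21,000xg for 90 min. Soluble protein was quantified by TMTpro 16plex LC-MS/MS with channel sums equalised, and reported as log2 fold change in thermal stability against DMSO controls, with values from duplicates.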

Protein sequences, listed by entry. Tags and fused reporters are not part of them. Lines headed by an entry give the natural chain unless they say otherwise; changes in a name come on top.
UniProt Q9BRQ8: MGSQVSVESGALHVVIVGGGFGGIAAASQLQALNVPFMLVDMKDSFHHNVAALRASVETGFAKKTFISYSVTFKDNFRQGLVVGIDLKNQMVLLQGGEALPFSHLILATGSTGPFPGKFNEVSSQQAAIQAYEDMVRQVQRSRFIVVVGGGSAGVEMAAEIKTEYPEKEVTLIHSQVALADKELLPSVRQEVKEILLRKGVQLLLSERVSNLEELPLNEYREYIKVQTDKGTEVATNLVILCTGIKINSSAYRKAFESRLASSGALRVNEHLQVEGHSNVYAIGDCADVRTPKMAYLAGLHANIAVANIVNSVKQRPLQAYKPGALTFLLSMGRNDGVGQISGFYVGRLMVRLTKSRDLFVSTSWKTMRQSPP
UniProt Q9UKV8, whole entry, looked up: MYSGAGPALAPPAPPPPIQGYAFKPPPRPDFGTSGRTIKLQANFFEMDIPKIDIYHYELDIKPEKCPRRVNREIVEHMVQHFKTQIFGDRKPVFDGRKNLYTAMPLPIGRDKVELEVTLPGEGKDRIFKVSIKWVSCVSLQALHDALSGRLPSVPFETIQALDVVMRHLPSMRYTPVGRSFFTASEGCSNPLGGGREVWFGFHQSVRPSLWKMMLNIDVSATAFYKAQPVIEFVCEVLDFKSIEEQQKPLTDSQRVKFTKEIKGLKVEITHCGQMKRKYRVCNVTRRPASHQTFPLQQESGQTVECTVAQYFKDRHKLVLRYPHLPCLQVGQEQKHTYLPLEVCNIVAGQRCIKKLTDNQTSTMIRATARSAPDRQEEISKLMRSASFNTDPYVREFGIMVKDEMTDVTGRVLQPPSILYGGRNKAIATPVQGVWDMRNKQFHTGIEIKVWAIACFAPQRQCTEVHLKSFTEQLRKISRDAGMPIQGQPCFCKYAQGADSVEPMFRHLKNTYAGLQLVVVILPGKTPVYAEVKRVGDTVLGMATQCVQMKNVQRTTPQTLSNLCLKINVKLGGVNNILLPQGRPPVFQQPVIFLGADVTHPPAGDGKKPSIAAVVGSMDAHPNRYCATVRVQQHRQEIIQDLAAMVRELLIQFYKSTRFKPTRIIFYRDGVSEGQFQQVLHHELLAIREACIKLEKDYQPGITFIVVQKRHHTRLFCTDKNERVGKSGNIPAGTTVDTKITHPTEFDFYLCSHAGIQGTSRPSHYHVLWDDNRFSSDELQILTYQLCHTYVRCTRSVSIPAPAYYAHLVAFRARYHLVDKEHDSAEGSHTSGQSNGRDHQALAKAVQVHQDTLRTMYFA
UniProt Q53H12: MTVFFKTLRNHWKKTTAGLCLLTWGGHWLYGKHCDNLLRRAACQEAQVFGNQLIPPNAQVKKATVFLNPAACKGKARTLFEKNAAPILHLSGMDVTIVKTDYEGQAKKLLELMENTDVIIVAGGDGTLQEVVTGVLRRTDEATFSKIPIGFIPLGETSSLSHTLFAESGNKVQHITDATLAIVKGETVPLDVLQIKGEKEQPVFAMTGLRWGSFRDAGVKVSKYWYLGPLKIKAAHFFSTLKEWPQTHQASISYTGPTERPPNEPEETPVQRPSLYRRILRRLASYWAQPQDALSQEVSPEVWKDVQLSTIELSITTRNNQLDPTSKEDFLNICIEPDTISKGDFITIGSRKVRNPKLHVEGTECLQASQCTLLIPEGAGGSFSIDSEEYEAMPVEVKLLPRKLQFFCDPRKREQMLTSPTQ
UniProt Q9H2P0: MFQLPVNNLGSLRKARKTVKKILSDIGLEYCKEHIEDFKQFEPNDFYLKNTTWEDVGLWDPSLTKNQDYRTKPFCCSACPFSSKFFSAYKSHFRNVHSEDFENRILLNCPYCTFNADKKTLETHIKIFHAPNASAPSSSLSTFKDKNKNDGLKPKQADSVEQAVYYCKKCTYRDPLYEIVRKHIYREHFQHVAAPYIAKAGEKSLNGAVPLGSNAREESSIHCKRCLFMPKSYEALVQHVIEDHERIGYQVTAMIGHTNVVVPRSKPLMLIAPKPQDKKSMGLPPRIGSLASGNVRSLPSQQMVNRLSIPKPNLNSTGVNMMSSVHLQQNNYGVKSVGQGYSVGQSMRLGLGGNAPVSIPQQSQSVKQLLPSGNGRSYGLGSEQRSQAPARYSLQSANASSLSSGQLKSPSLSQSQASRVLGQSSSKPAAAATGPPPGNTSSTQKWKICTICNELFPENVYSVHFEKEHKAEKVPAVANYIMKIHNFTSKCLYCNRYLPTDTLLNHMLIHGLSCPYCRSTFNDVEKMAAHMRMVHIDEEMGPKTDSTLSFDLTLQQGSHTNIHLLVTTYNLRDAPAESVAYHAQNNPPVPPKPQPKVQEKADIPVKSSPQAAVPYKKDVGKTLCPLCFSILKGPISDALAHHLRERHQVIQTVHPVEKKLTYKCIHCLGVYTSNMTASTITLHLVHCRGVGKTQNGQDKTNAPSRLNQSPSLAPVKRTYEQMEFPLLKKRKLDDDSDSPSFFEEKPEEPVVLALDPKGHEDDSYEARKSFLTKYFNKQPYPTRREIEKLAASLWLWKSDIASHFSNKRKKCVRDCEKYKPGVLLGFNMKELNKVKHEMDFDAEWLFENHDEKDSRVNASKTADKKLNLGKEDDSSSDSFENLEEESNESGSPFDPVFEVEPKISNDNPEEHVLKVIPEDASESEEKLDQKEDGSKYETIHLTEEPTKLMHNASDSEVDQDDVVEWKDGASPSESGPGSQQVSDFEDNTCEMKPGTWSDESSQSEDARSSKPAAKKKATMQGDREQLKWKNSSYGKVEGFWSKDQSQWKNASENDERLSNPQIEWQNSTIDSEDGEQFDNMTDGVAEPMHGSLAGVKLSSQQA
UniProt P33121: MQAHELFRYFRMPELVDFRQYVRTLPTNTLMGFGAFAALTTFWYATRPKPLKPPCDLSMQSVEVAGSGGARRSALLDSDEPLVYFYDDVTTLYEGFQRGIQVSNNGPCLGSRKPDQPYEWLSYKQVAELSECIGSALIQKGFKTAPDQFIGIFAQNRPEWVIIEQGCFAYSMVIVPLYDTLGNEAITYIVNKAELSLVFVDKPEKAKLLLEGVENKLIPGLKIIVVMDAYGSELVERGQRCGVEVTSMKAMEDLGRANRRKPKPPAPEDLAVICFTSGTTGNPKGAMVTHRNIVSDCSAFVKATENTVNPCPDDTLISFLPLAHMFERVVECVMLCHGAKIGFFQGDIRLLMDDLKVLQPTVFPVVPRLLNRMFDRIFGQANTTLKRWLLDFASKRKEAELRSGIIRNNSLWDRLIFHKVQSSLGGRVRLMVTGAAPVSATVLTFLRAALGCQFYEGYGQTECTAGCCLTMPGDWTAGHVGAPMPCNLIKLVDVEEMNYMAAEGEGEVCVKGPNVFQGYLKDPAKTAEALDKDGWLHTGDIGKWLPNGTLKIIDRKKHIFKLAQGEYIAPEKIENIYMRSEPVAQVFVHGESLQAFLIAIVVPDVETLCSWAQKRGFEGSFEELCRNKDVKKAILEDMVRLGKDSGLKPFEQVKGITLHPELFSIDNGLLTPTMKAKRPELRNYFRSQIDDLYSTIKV
UniProt P51825: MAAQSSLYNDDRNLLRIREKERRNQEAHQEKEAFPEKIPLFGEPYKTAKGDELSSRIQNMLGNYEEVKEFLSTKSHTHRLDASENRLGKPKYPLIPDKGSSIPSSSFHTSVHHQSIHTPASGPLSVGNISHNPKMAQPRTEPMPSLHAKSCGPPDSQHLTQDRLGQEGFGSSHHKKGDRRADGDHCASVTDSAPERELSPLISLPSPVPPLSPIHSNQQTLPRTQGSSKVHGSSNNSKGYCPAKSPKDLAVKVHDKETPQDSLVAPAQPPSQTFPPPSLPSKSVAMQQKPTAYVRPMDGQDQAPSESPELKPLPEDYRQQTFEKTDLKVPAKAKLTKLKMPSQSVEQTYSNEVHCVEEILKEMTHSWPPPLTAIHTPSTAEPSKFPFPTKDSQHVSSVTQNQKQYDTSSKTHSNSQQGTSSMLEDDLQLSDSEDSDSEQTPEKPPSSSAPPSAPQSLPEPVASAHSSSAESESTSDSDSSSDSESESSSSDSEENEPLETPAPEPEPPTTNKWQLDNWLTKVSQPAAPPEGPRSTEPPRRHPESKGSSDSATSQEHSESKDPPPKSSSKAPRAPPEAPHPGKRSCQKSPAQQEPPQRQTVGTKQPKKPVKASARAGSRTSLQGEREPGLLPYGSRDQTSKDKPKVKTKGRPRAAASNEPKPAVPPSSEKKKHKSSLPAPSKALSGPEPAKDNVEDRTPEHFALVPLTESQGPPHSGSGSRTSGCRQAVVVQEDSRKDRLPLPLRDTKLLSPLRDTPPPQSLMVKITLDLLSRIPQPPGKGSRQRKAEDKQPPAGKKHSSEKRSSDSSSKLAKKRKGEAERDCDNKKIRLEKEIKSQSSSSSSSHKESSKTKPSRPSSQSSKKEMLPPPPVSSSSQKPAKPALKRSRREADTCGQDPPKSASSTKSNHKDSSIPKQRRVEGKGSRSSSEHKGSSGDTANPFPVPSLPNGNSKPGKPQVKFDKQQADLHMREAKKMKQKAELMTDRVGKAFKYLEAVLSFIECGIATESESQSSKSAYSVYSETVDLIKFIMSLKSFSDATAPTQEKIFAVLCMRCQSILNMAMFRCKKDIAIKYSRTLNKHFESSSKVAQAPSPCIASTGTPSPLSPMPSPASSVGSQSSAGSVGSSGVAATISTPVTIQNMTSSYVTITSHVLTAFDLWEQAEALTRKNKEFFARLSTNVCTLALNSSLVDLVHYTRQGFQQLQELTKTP
UniProt Q9NZ32, whole entry, looked up: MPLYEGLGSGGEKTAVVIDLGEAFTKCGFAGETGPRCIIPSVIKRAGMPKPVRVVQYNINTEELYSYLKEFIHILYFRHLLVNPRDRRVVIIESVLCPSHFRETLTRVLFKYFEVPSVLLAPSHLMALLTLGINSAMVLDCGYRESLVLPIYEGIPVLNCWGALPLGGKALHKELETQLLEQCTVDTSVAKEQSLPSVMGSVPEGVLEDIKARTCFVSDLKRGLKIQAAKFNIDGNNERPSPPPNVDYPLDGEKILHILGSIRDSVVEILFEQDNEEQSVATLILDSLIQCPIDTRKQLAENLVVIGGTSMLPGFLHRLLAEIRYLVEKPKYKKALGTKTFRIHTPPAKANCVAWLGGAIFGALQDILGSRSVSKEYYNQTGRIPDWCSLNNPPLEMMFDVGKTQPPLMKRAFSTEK
UniProt Q9NRZ7: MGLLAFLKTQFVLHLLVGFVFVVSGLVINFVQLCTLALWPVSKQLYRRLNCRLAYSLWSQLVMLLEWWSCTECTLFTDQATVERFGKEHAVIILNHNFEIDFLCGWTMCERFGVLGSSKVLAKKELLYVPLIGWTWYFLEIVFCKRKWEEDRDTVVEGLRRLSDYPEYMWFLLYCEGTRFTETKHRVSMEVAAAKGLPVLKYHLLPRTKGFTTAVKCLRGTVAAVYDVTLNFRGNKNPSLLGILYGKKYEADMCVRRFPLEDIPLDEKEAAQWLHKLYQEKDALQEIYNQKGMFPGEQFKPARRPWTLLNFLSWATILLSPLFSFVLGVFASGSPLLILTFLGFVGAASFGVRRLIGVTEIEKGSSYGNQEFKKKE
UniProt Q9Y305: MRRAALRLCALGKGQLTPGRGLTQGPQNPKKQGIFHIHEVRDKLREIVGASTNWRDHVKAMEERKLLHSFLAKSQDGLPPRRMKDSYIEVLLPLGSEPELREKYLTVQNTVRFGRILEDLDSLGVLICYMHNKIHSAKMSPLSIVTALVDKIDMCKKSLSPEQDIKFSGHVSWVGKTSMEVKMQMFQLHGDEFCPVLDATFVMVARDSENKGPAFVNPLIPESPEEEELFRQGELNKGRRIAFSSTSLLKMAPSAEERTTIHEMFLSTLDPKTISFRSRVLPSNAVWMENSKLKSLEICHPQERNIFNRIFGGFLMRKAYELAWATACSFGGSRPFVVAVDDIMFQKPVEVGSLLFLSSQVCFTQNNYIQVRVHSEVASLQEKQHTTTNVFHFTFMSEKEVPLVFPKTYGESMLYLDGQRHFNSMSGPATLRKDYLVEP
UniProt Q7Z6V5: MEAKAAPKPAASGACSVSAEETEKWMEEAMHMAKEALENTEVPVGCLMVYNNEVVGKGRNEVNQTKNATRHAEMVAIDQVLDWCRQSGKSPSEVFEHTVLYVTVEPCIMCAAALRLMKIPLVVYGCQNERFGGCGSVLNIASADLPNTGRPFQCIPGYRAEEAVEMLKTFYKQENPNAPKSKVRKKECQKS
UniProt Q13155: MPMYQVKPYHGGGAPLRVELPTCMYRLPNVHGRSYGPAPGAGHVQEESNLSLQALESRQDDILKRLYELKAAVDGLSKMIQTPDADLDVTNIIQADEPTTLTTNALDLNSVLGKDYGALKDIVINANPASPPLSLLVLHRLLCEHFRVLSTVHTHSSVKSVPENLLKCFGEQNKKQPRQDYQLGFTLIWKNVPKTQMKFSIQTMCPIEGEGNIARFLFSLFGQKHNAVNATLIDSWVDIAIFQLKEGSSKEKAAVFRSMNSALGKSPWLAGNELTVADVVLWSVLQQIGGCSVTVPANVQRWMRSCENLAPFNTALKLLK

[1] = compound: CCCS(=O)(=O)Nc1ccc(F)c(C(=O)c2c[nH]c3ncc(Cl)cc23)c1F
Outline: as §1

barasertib = compound: CCN(CCCOc1ccc2c(Nc3cc(CC(=O)Nc4cccc(F)c4)[nH]n3)ncnc2c1)CCOP(=O)(O)O [barasertib]
Outline: as §1

[2] = compound: CC[C@@H]1C(=O)N(C)c2cnc(Nc3ccc(C(=O)NC4CCN(C)CC4)cc3OC)nc2N1C1CCCC1
Outline: as §1

volasertib = compound: CC[C@@H]1C(=O)N(C)c2cnc(Nc3ccc(C(=O)N[C@H]4CC[C@H](N5CCN(CC6CC6)CC5)CC4)cc3OC)nc2N1C(C)C [volasertib]
Outline: as §1

[3] = compound: CCn1c(C(=O)N(C2CC2)C2CC2)cc2c3c(ncn3C)c(Nc3cc(C)n(C)n3)nc21
Outline: as §1

[4] = compound: CCn1cc(-c2ccnc3[nH]c(-c4cccc(CN(C)C)c4)cc23)c(-c2ccc(NC(=O)N(C)C)cc2)n1
Outline: as §1

[5] = compound: CN1CCC(CNc2ccc3ncc(-c4cccc(OC(F)(F)F)c4)n3n2)CC1
Outline: as §1

saracatinib = compound: CN1CCN(CCOc2cc(OC3CCOCC3)c3c(Nc4c(Cl)ccc5c4OCO5)ncnc3c2)CC1 [saracatinib]
Outline: as §1

sotrastaurin = compound: CN1CCN(c2nc(C3=C(c4c[nH]c5ccccc45)C(=O)NC3=O)c3ccccc3n2)CC1 [sotrastaurin]
Outline: as §1

alvocidib = compound: CN1CC[C@H](c2c(O)cc(O)c3c(=O)cc(-c4ccccc4Cl)oc23)[C@H](O)C1 [alvocidib]
Outline: as §1

Tubastatin A = compound: CN1CCc2c(c3ccccc3n2Cc2ccc(C(=O)NO)cc2)C1 [Tubastatin A]
Outline: as §1

[6] = compound: CNC(=O)C1=CC=CC=C1NC2=NC(=NC=C2Cl)NC3=C(C=C(C=C3)N4CCOCC4)OC
Outline: as §1

defactinib = compound: CNC(=O)c1ccc(Nc2ncc(C(F)(F)F)c(NCc3nccnc3N(C)S(C)(=O)=O)n2)cc1 [defactinib]
Outline: as §1

[7] = compound: CNc1nc(-c2ccc3c(N)n[nH]c3c2)cc(N2C[C@@H](C(=O)NC3CCCCC3)CC[C@H]2C)n1
Outline: as §1

encorafenib = compound: COC(=O)N[C@@H](C)CNc1nccc(-c2cn(C(C)C)nc2-c2cc(Cl)cc(NS(C)(=O)=O)c2F)n1 [encorafenib]
Outline: as §1

[8] = compound: COC(=O)[C@H](CCSC)NC(=O)C1=C(C=C(C=C1)NC[C@H](CS)N)C2=CC=CC=C2
Outline: as §1

alisertib = compound: COc1cc(Nc2ncc3c(n2)-c2ccc(Cl)cc2C(c2c(F)cccc2OC)=NC3)ccc1C(=O)O [alisertib]
Outline: as §1

[9] = compound: COc1cc2nc(-c3cc(F)ccc3O)nc(N[C@@H]3CNC[C@H]3C(C)(C)O)c2cc1OC
Outline: as §1

gefitinib = compound: COc1cc2ncnc(Nc3ccc(F)c(Cl)c3)c2cc1OCCCN1CCOCC1 [gefitinib]
Outline: as §1

Measured: log2 fold change

AIFM2 (UniProt Q9BRQ8)
inactive: vemurafenib -0.19 | [1] 0.091 | barasertib -0.029 | [2] -0.018 | volasertib -0.004 | [3] -0.089 | [4] -0.057 | [5] 0.149 | saracatinib -0.062 | sotrastaurin 0.036 | alvocidib -0.032 | Tubastatin A 0.044 | [6] 0.114 | defactinib 0.045 | [7] 0.099 | encorafenib 0.024 | [8] 0.107 | alisertib -0.032 | [9] -0.034 | gefitinib 0.038

AFDN (UniProt J3KN01)
inactive: vemurafenib 0.021 | [1] 0.027 | barasertib 0.014 | [2] -0.016 | volasertib -0.022 | [3] -0.016 | [4] 0.027 | [5] -0.031 | saracatinib 0.012 | sotrastaurin -0.028 | alvocidib -0.053 | Tubastatin A -0.036 | [6] -0.007 | defactinib -0.061 | [7] -0.052 | encorafenib 0.061 | [8] -0.03 | alisertib 0.05 | [9] 0.017 | gefitinib -0.024

ADA (UniProt P00813)
inactive: vemurafenib -0.002 | [1] -0.013 | barasertib 0.007 | [2] 0.018 | volasertib 0.014 | [3] -0.015 | [4] -0.047 | [5] 0.108 | saracatinib -0.029 | sotrastaurin 0.061 | alvocidib -0.006 | Tubastatin A 0.077 | [6] -0.009 | defactinib -0.022 | [7] 0.015 | encorafenib 0.015 | [8] -0.001 | alisertib -0.019 | [9] 0.008 | gefitinib 0.045

AKAP9 (UniProt Q99996)
inactive: vemurafenib 0.042 | [1] 0.008 | barasertib 0.029 | [2] 0.015 | volasertib -0.048 | [3] 0.02 | [4] -0.022 | [5] -0.016 | saracatinib 0.015 | sotrastaurin -0.03 | alvocidib -0.015 | Tubastatin A -0.04 | [6] -0.019 | defactinib -0.063 | [7] 0.018 | encorafenib 0.03 | [8] 0.031 | alisertib 0.003 | [9] 0.032 | gefitinib 0.015

AGO2 (UniProt Q9UKV8)
inactive: vemurafenib -0.001 | [1] 0.017 | barasertib 0.003 | [2] 0.015 | volasertib 0.026 | [3] 0.006 | [4] 0.052 | [5] -0.021 | saracatinib 0.007 | sotrastaurin 0.001 | alvocidib 0.016 | Tubastatin A -0.009 | [6] 0.009 | defactinib -0.001 | [7] 0.039 | encorafenib 0.018 | [8] -0.061 | alisertib -0.016 | [9] 0.009 | gefitinib 0.046

ACTR3B (UniProt Q9P1U1)
inactive: vemurafenib -0.032 | [1] -0.001 | barasertib -0.033 | [2] 0.065 | volasertib 0.012 | [3] -0.042 | [4] -0.027 | [5] 0.036 | saracatinib 0.013 | sotrastaurin -0.091 | alvocidib -0.012 | Tubastatin A 0 | [6] -0.001 | defactinib 0.05 | [7] 0.049 | encorafenib -0.026 | [8] -0.047 | alisertib -0.007 | [9] -0.002 | gefitinib 0.009

AGK (UniProt Q53H12)
inactive: vemurafenib 0.021 | [1] 0.01 | barasertib -0.018 | [2] -0.014 | volasertib 0.019 | [3] -0.002 | [4] 0.091 | [5] -0.133 | saracatinib -0.006 | sotrastaurin -0.029 | alvocidib 0.001 | Tubastatin A 0.057 | [6] -0.032 | defactinib 0.014 | [7] 0.067 | encorafenib -0.004 | [8] 0.06 | alisertib -0.02 | [9] -0.057 | gefitinib -0.041

2 neighbouring records from above:
ADA (UniProt P00813)
inactive: vemurafenib -0.002 | [1] -0.013 | barasertib 0.007 | [2] 0.018 | volasertib 0.014 | [3] -0.015 | [4] -0.047 | [5] 0.108 | saracatinib -0.029 | sotrastaurin 0.061 | alvocidib -0.006 | Tubastatin A 0.077 | [6] -0.009 | defactinib -0.022 | [7] 0.015 | encorafenib 0.015 | [8] -0.001 | alisertib -0.019 | [9] 0.008 | gefitinib 0.045

AKAP9 (UniProt Q99996)
inactive: vemurafenib 0.042 | [1] 0.008 | barasertib 0.029 | [2] 0.015 | volasertib -0.048 | [3] 0.02 | [4] -0.022 | [5] -0.016 | saracatinib 0.015 | sotrastaurin -0.03 | alvocidib -0.015 | Tubastatin A -0.04 | [6] -0.019 | defactinib -0.063 | [7] 0.018 | encorafenib 0.03 | [8] 0.031 | alisertib 0.003 | [9] 0.032 | gefitinib 0.015

Further results follow:

ADNP (UniProt Q9H2P0)
inactive: vemurafenib 0.004 | [1] 0.017 | barasertib 0.048 | [2] -0.02 | volasertib -0.05 | [3] 0.001 | [4] -0.08 | [5] 0.068 | saracatinib -0.03 | sotrastaurin 0.022 | alvocidib -0.053 | Tubastatin A -0.033 | [6] 0.015 | defactinib -0.022 | [7] 0.024 | encorafenib 0.018 | [8] 0.138 | alisertib -0.028 | [9] 0.018 | gefitinib -0.024

ADO (UniProt Q96SZ5)
inactive: vemurafenib 0.01 | [1] 0.029 | barasertib 0.014 | [2] -0.026 | volasertib 0.008 | [3] -0.004 | [4] -0.027 | [5] 0.06 | saracatinib 0 | sotrastaurin -0.008 | alvocidib -0.022 | Tubastatin A 0.09 | [6] -0.021 | defactinib -0.001 | [7] 0.047 | encorafenib -0.04 | [8] 0.047 | alisertib 0.027 | [9] 0.003 | gefitinib 0

ACSL1 (UniProt P33121)
inactive: vemurafenib 0.021 | [1] 0.023 | barasertib 0.046 | [2] -0.054 | volasertib -0.1 | [3] 0.038 | [4] -0.014 | [5] -0.242 | saracatinib -0.066 | sotrastaurin -0.002 | alvocidib 0.02 | Tubastatin A -0.169 | [6] 0.001 | defactinib 0.096 | [7] -0.062 | encorafenib 0.007 | [8] -0.052 | alisertib 0.057 | [9] -0.08 | gefitinib -0.036

AFF1 isoform 2 (UniProt P51825)
inactive: vemurafenib -0.059 | [1] 0.007 | barasertib 0.033 | [2] 0.068 | volasertib -0.043 | [3] -0.023 | [4] -0.307 | [5] 0.125 | saracatinib -0.015 | sotrastaurin 0.029 | alvocidib -0.157 | Tubastatin A 0.052 | [6] 0.076 | defactinib 0.083 | [7] 0.004 | encorafenib -0.001 | [8] -0.033 | alisertib -0.043 | [9] 0.157 | gefitinib -0.323

ACTR10 (UniProt Q9NZ32)
inactive: vemurafenib -0.028 | [1] 0.071 | barasertib 0.009 | [2] 0.022 | volasertib 0.021 | [3] -0.037 | [4] 0.043 | [5] 0.05 | saracatinib -0.021 | sotrastaurin -0.096 | alvocidib -0.041 | Tubastatin A 0.003 | [6] 0.012 | defactinib -0.033 | [7] 0.014 | encorafenib 0.024 | [8] -0.04 | alisertib 0.01 | [9] 0 | gefitinib 0.082

AGPAT3 isoform 3 (UniProt Q9NRZ7)
inactive: vemurafenib 0.058 | [1] 0.019 | barasertib 0.032 | [2] -0.139 | volasertib -0.035 | [3] 0.016 | [4] -0.089 | [5] -0.039 | saracatinib -0.004 | sotrastaurin 0.037 | alvocidib -0.035 | Tubastatin A -0.079 | [6] 0.001 | defactinib -0.006 | [7] -0.009 | encorafenib 0.006 | [8] -0.076 | alisertib 0.05 | [9] 0.035 | gefitinib 0.006

ACOT9 isoform 4 (UniProt Q9Y305)
inactive: vemurafenib 0.01 | [1] -0.005 | barasertib 0.015 | [2] -0.066 | volasertib -0.1 | [3] 0.007 | [4] -0.068 | [5] -0.04 | saracatinib 0.113 | sotrastaurin 0.02 | alvocidib 0.027 | Tubastatin A -0.125 | [6] -0.029 | defactinib -0.001 | [7] -0.008 | encorafenib 0.003 | [8] 0.053 | alisertib 0.021 | [9] -0.014 | gefitinib -0.008

ADAT2 (UniProt Q7Z6V5)
inactive: vemurafenib -0.07 | [1] 0.04 | barasertib -0.035 | [2] -0.035 | volasertib -0.013 | [3] -0.03 | [4] 0.007 | [5] 0.037 | saracatinib -0.026 | sotrastaurin -0.014 | alvocidib -0.037 | Tubastatin A -0.01 | [6] 0.013 | defactinib 0.012 | [7] 0.031 | encorafenib -0.062 | [8] -0.056 | alisertib 0.045 | [9] -0.026 | gefitinib 0.03

AIMP2 (UniProt Q13155)
inactive: vemurafenib -0.026 | [1] 0.022 | barasertib 0.031 | [2] -0.131 | volasertib -0.063 | [3] -0.019 | [4] -0.008 | [5] -0.079 | saracatinib 0.018 | sotrastaurin 0.015 | alvocidib 0.037 | Tubastatin A -0.11 | [6] 0.006 | defactinib -0.01 | [7] -0.007 | encorafenib -0.02 | [8] 0.093 | alisertib 0.011 | [9] -0.028 | gefitinib -0.088

Source: the supplement of paper PMC10849652
